For the series, the target named is MutS (Escherichia coli) (UniProt P23909). Description: EMSA. To be noted: ATPgS above 250 uM, 60 nM MutS, heteroduplex completely free; 20 mM Tris pH 7.6, 5 mM MgCl2, 1 mM DTT, 50 ug/ml BSA, 10 mM KCl, 200 fmol homoduplex competitor, 10-20 fmol labeled DNA in 20 ul; recombinant protein; protein details: His; label: 5' 32P.

By UniProt entry, the sequences of proteins in these tests, tags left out. Where a name states a change or a piece, a line headed by the entry shows the natural chain unless it says otherwise.
UniProt P23909: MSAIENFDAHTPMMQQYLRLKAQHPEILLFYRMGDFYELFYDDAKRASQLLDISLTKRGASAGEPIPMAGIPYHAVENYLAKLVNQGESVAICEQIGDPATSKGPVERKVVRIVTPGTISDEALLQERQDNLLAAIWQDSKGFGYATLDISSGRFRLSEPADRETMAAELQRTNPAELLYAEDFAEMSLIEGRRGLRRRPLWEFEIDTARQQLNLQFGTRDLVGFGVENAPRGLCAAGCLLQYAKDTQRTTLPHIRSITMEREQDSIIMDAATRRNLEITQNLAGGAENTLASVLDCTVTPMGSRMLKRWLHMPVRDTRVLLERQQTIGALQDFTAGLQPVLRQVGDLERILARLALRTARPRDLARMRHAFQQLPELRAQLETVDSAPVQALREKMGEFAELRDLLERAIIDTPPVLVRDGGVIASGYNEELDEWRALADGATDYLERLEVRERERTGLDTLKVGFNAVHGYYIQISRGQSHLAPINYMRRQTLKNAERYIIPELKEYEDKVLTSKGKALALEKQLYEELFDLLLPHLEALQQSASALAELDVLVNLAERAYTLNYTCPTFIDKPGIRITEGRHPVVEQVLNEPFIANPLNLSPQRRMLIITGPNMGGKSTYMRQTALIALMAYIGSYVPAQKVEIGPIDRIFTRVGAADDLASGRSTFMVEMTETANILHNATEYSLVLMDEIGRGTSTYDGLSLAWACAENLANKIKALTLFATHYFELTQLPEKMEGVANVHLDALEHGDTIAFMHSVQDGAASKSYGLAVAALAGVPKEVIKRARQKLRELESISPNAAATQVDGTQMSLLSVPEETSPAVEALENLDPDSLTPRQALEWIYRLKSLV

For at least one entry, the source does not settle the construct or the ends of the probe. No signal at the amounts used counts as a negative.

With “CTAGCAAGCTTTCGATTCTAGAAATTCGGC / GCCGAATTTCTAGAATTGAAAGCTTGCTAG [G-T mismatch heteroduplex]”, the binding result is recorded as “no binding”.

For the origin of these results see article PMC3437207.
